# Data published in the supplement of paper PMC4604168 (melanoma cell lines).
# The other results are listed elsewhere or left out. Single values are uncertain, as repeats are few or missing.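 Cells were imaged in 1,536-well plates, and nuclei stained with an antibody against cleaved PARP were counted against all DNA-stained nuclei to give the apoptosis fraction. Screening doses were chosen to leave most cells alive, and resting and induced cleaved-PARP levels differ strongly between cell lines.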
# Tests used:
# Test in all cases: cleaved PARP positive nuclei fraction relative to DMSO control; melanoma cells; higher = more apoptosis
# Conditions in all cases: library dose: low library concentration; 72 h
# 501Mel = tested on: 501Mel
# A101D = tested on: A101D
# A2058 = tested on: A2058
# A375 = tested on: A375
# C32 = tested on: C32
# CBRC013 = tested on: CBRC013 (line from a melanoma biopsy)
# CBRC014 = tested on: CBRC014 (line from a melanoma biopsy)
# CBRC016 = tested on: CBRC016 (line from a melanoma biopsy)
# CBRC017 = tested on: CBRC017 (line from a melanoma biopsy)
# CBRC008 = tested on: CBRC008 (line from a melanoma biopsy)
Compound,cleaved PARP positive nuclei fraction (501Mel),cleaved PARP positive nuclei fraction (A101D),cleaved PARP positive nuclei fraction (A2058),cleaved PARP positive nuclei fraction (A375),cleaved PARP positive nuclei fraction (C32),cleaved PARP positive nuclei fraction (CBRC013),cleaved PARP positive nuclei fraction (CBRC014),cleaved PARP positive nuclei fraction (CBRC016),cleaved PARP positive nuclei fraction (CBRC017),cleaved PARP positive nuclei fraction (CBRC008)
"C[As](C)SC[C@H](NC(=O)CC[C@H](N)C(=O)O)C(=O)NCC(=O)O [Darinaparsin] + COC(=O)c1sccc1S(=O)(=O)Nc1ccc(Nc2ccccc2)cc1OC [GSK0660] (first compound 0.4 µM, partner dose 1 µM)",34.8%,121%,99.5%,139%,63.5%,291%,108%,82.1%,95.6%,–
"CC1(C)NC(=O)N(c2ccc([N+](=O)[O-])c(C(F)(F)F)c2)C1=O [nilutamide] + O=C(Oc1ccc([N+](=O)[O-])cc1)N1CCC(C(O)(c2ccc3c(c2)OCO3)c2ccc3c(c2)OCO3)CC1 [JZL184] (first compound 1 µM, partner dose 1 µM)",148%,33.8%,98.4%,36.6%,31.7%,131%,97%,21%,64.8%,–
"COC(=O)c1sccc1S(=O)(=O)Nc1ccc(Nc2ccccc2)cc1OC + Cc1cc(SCc2sc(-c3ccc(C(F)(F)F)c(F)c3)nc2C)ccc1OCC(=O)O [GW0742] (first compound 1 µM, partner dose 2 µM)",76.5%,109%,91.8%,33.4%,71.9%,272%,114%,57.2%,88.7%,–
"COc1ccc2c(c1)CCC1C2CCC2(C)C(NCCCCCCN3C(=O)C=CC3=O)CCC12 (stereo not given) + Cc1cc(SCc2sc(-c3ccc(C(F)(F)F)c(F)c3)nc2C)ccc1OCC(=O)O [GW0742] (first compound 0.4 µM, partner dose 2 µM)",32.2%,107%,187%,177%,97.3%,45.6%,108%,113%,167%,–
"COc1cc2ncnc(Nc3ccc(Oc4ccccc4)cc3)c2cc1OC + C/C(O)=C(\C#N)C(=O)Nc1cc(Br)ccc1Br [LFM-A13] (first compound 2 µM, partner dose 2 µM)",135%,101%,67.8%,34.2%,172%,46.2%,89.8%,83.5%,44.2%,–
"C[As](C)SC[C@H](NC(=O)CC[C@H](N)C(=O)O)C(=O)NCC(=O)O [Darinaparsin] + COc1cc2ncnc(Nc3ccc(Oc4ccccc4)cc3)c2cc1OC [SrcI1] (first compound 0.4 µM, partner dose 2 µM)",60.4%,107%,217%,107%,100%,192%,95.2%,69.5%,80%,–
"NC(=O)c1ccc(N(C(N)=O)c2c(F)cccc2F)nc1-c1ccc(F)cc1F + C[As](C)SC[C@H](NC(=O)CC[C@H](N)C(=O)O)C(=O)NCC(=O)O [Darinaparsin] (first compound 0.4 µM, partner dose 0.4 µM)",104%,89.1%,81.7%,68.1%,–,–,105%,118%,95.8%,47.9%
"N.N.[Cl][Pt][Cl] [cisplatin] + C/C(O)=C(\C#N)C(=O)Nc1cc(Br)ccc1Br [LFM-A13] (first compound 1.6 µM, partner dose 2 µM)",141%,22.3%,112%,–,186%,–,107%,349%,175%,174%
"Cn1cc(C2=C(c3cn(C4CCN(Cc5ccccn5)CC4)c4ccccc34)C(=O)NC2=O)c2ccccc21 [Enzastaurin] + O=C(Oc1ccc([N+](=O)[O-])cc1)N1CCC(C(O)(c2ccc3c(c2)OCO3)c2ccc3c(c2)OCO3)CC1 [JZL184] (first compound 0.8 µM, partner dose 1 µM)",67.1%,62%,71.6%,–,83.1%,–,128%,38.2%,126%,126%
"C[C@]12O[C@H](C[C@]1(O)CO)n1c3ccccc3c3c4c(c5c6ccccc6n2c5c31)CNC4=O [Lestaurtinib] + CCCCCCCCCCCC1=C(O)C(=O)C=C(O)C1=O [Embelin] (first compound 0.004 µM, partner dose 1.2 µM)",85.7%,46.4%,93.2%,–,261%,–,89.8%,50.4%,93.8%,143%
"N.N.[Cl][Pt][Cl] [cisplatin] + O=C(Nc1ccccc1)c1cc([N+](=O)[O-])ccc1Cl [GW9662] (first compound 1.6 µM, partner dose 2 µM)",165%,28.5%,108%,–,38.1%,–,102%,204%,103%,161%
"C=C(c1ccc(C(=O)O)cc1)c1cc2c(cc1C)C(C)(C)CCC2(C)C [Bexarotene] + Cc1cc(SCc2sc(-c3ccc(C(F)(F)F)c(F)c3)nc2C)ccc1OCC(=O)O [GW0742] (first compound 2 µM, partner dose 2 µM)",144%,16.4%,104%,–,69.8%,–,111%,258%,145%,185%
"N.N.[Cl][Pt][Cl] [cisplatin] + CCc1ccc(CCOc2ccc(CC3SC(=O)NC3=O)cc2)nc1 [pioglitazone] (first compound 1.6 µM, partner dose 2 µM)",161%,63.2%,76.7%,–,78.6%,–,826%,3160%,2670%,4580%
"C[C@]12O[C@H](C[C@]1(O)CO)n1c3ccccc3c3c4c(c5c6ccccc6n2c5c31)CNC4=O [Lestaurtinib] + Oc1nc(-c2ccc(C(F)(F)F)cc2)nc2c1CSCC2 [XAV939] (first compound 0.004 µM, partner dose 2 µM)",146%,38.4%,39.8%,–,80%,–,96.4%,86.5%,83.5%,45.8%
"CO[C@H]1C[C@@H]2CC[C@@H](C)[C@@](O)(O2)C(=O)C(=O)N2CCCC[C@H]2C(=O)O[C@H]([C@H](C)C[C@@H]2CC[C@@H](OCCO)[C@H](OC)C2)CC(=O)[C@H](C)/C=C(\C)[C@@H](O)[C@@H](OC)C(=O)[C@H](C)C[C@H](C)/C=C/C=C/C=C/1C [everolimus] + Cc1cc(SCc2sc(-c3ccc(C(F)(F)F)c(F)c3)nc2C)ccc1OCC(=O)O [GW0742] (first compound 0.02 µM, partner dose 2 µM)",182%,19.3%,51.7%,–,220%,–,83%,6630%,86.5%,117%
"Cn1cc(C2=C(c3cn(C4CCN(Cc5ccccn5)CC4)c4ccccc34)C(=O)NC2=O)c2ccccc21 [Enzastaurin] + O=C(O)C(=O)Nc1sc2c(c1C(=O)O)CCNC2 [TCS401] (first compound 0.8 µM, partner dose 1.66667 µM)",115%,46.8%,324%,–,112%,–,93.4%,35.4%,76.1%,192%
"CNC(=O)c1cc(Oc2ccc(NC(=O)Nc3ccc(Cl)c(C(F)(F)F)c3)cc2)ccn1 [sorafenib] + O=C(Oc1ccc([N+](=O)[O-])cc1)N1CCC(C(O)(c2ccc3c(c2)OCO3)c2ccc3c(c2)OCO3)CC1 [JZL184] (first compound 0.4 µM, partner dose 1 µM)",77.5%,42.2%,97.4%,–,179%,–,92.2%,62.3%,185%,87.2%
"C[C@]12O[C@H](C[C@]1(O)CO)n1c3ccccc3c3c4c(c5c6ccccc6n2c5c31)CNC4=O [Lestaurtinib] + COc1ccc2c(c1)CCC1C2CCC2(C)C(NCCCCCCN3C(=O)C=CC3=O)CCC12 [U73122] (first compound 0.004 µM, partner dose 0.4 µM)",208%,50.9%,94.8%,–,89%,–,97.5%,164%,109%,98.4%
"NC(=O)c1ccc(N(C(N)=O)c2c(F)cccc2F)nc1-c1ccc(F)cc1F + Cc1cc(SCc2sc(-c3ccc(C(F)(F)F)c(F)c3)nc2C)ccc1OCC(=O)O [GW0742] (first compound 0.4 µM, partner dose 2 µM)",83.5%,56.1%,241%,–,110%,–,97.4%,97.8%,79.3%,123%
"Cn1cc(C2=C(c3cn(C4CCN(Cc5ccccn5)CC4)c4ccccc34)C(=O)NC2=O)c2ccccc21 [Enzastaurin] + O=C1NC(=O)/C(=C/c2ccc(-c3ccc(F)cc3O)o2)S1 [AS252424] (first compound 0.8 µM, partner dose 1 µM)",35.7%,41.8%,59.4%,–,41.3%,–,118%,106%,102%,120%
"CCCCCCCCCCCCCCCCCCOP(=O)([O-])OC1CC[N+](C)(C)CC1 [Perifosine] + Cc1cc(SCc2sc(-c3ccc(C(F)(F)F)c(F)c3)nc2C)ccc1OCC(=O)O [GW0742] (first compound 0.4 µM, partner dose 2 µM)",83.5%,39.8%,138%,–,49.9%,–,123%,43.2%,80.9%,43.8%
"C=CCNC1=C2C[C@@H](C)C[C@H](OC)[C@H](O)[C@@H](C)/C=C(\C)[C@H](OC(N)=O)[C@@H](OC)/C=C\C=C(/C)C(=O)NC(=CC1=O)C2=O [Tanespimycin] + O=C(Oc1ccc([N+](=O)[O-])cc1)N1CCC(C(O)(c2ccc3c(c2)OCO3)c2ccc3c(c2)OCO3)CC1 [JZL184] (first compound 0.002 µM, partner dose 1 µM)",167%,10.1%,75.9%,–,150%,–,87.6%,54.2%,51.4%,131%
"C=C(c1ccc(C(=O)O)cc1)c1cc2c(cc1C)C(C)(C)CCC2(C)C [Bexarotene] + O=C(Oc1ccc([N+](=O)[O-])cc1)N1CCC(C(O)(c2ccc3c(c2)OCO3)c2ccc3c(c2)OCO3)CC1 [JZL184] (first compound 2 µM, partner dose 1 µM)",57.4%,19.6%,120%,–,341%,–,126%,184%,127%,419%

# An excerpt from above, limited to cleaved PARP positive nuclei fraction (A375), cleaved PARP positive nuclei fraction (C32) and cleaved PARP positive nuclei fraction (CBRC017).
Compound | cleaved PARP positive nuclei fraction (A375) | cleaved PARP positive nuclei fraction (C32) | cleaved PARP positive nuclei fraction (CBRC017)
Cn1cc(C2=C(c3cn(C4CCN(Cc5ccccn5)CC4)c4ccccc34)C(=O)NC2=O)c2ccccc21 [Enzastaurin] + O=C(O)C(=O)Nc1sc2c(c1C(=O)O)CCNC2 [TCS401] (first compound 0.8 µM, partner dose 1.66667 µM) | – | 112% | 76.1%
CNC(=O)c1cc(Oc2ccc(NC(=O)Nc3ccc(Cl)c(C(F)(F)F)c3)cc2)ccn1 [sorafenib] + O=C(Oc1ccc([N+](=O)[O-])cc1)N1CCC(C(O)(c2ccc3c(c2)OCO3)c2ccc3c(c2)OCO3)CC1 [JZL184] (first compound 0.4 µM, partner dose 1 µM) | – | 179% | 185%
